Experiment [1] addresses C3(H2O) (human) (UniProt P01024). In words: pre-incubation of the mAb with KBr-treated NHS or purified C3, then AP activation assay on Sepharose 4B (FIGS. 4B, 4C).
Experiment [2] has the same target. Description: inferred from lack of A1488 mAb binding to Sepharose 4B when the mAb is present during opsonization in 50% NHS.

The chains behind the UniProt entries cited, without tags or fusion partners. Where a name states a change or a piece, a line headed by the entry shows the natural chain unless it says otherwise. Residues count along the entry.
UniProt P01024, residues 23-1663: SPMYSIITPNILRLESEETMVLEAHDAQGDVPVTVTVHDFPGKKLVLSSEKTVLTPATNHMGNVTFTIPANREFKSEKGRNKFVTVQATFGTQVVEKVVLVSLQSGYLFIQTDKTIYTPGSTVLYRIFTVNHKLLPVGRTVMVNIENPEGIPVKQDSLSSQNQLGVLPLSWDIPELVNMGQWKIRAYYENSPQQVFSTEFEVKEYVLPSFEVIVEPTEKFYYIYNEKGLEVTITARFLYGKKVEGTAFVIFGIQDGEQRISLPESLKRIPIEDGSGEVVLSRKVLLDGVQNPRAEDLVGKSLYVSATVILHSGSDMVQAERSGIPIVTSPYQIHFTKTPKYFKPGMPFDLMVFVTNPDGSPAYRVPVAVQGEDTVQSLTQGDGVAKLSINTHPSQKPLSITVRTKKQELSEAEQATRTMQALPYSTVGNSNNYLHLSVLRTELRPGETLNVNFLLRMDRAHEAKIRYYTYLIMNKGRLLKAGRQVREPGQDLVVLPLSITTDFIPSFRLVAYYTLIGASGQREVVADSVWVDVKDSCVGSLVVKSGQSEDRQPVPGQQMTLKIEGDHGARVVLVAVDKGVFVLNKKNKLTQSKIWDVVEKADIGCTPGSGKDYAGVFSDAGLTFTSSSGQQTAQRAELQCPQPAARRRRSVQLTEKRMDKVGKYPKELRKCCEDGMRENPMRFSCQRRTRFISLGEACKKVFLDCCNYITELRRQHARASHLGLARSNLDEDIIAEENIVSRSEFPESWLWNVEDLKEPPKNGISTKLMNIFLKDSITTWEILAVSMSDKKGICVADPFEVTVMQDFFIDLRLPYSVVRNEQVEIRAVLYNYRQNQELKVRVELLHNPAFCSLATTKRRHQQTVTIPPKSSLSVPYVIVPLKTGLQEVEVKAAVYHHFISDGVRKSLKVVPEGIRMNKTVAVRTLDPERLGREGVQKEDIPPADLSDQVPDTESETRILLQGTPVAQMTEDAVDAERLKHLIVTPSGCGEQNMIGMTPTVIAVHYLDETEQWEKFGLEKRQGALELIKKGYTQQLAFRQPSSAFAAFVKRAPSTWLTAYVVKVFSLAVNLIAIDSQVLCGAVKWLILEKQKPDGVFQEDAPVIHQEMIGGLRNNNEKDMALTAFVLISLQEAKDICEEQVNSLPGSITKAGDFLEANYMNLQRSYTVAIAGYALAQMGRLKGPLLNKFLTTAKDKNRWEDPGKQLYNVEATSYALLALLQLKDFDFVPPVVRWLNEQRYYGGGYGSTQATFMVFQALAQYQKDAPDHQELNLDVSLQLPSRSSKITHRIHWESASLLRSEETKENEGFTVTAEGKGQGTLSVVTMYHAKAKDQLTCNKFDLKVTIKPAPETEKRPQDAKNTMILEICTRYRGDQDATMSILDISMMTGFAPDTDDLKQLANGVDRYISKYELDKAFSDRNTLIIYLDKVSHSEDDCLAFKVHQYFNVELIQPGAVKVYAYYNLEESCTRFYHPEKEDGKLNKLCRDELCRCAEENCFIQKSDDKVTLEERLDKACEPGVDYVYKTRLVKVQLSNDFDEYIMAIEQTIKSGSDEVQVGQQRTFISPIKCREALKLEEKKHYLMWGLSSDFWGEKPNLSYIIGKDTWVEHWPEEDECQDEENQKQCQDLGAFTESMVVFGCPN

Results are given in words; binding and its absence hold for the method and conditions named. Some entries that bind do so weakly or less than the wild type.

B1: mAb H17 (antibody, V domains shown)
VH: EVQLQESGPSLVKPSQTLSLTCTVSGDSITSDYWNWIRQAPGKGLESMGYITYSGTTYYNPSLKSRVTISRDTSKNQYYMELSSLRSEDTATYYCARGVDYEPSYYFDYWGQGTLVTVSS
VL: DIQMTQSPSSLSASVGDRVTITCSASQGISNYLNWYQQKPGKAPKLLIYYTSSLHSGVPSRFSGSGSGTDYSLTISSLQPEDIATYYCQQYSNLPWTFGQGTKVEIK
notes: It is a chimeric, de-immunized form of 3E7 with human gamma1 and kappa constant regions, expressed in NS0 cells; also called H117; deimmunized chimeric 3E7
For B1, the binding result with C3(H2O) (human) [1] and in the experiment with C3(H2O) (human) [2] was “binds” throughout.

B2: mAb 3E7 (antibody, mouse IgG1, V domains shown)
VH: EVQLQESGPSLVKPSQTLSLTCSVTGDSITSDYWNWIRKFPGNKLESMGYITYSGTTYYNPSLKSRISITRDTSKNQYYLQLNSVTSEDTATYYCARGVDYEPSYYFDYWGQGTTLTVSS
VL: DIQMTQTTSSLSASLGDRVTISCSASQGISNYLNWYQQKPDGTVKLLIYYTSSLHSGVPSRFSGSGSGTDYSLTISNLEPEDIATYYCQQYSNLPWTFGGGTKLEIK
notes: also called mouse IgG1 mAb 3E7; A1488 mAb 3E7
Turning to B2, the binding result with C3(H2O) (human) [1] and with C3(H2O) (human) [2] was “binds” throughout.

These data come from patent US20090004183A1 (published 2009).
